PMC6894230
No constants are given. Whether binding was seen depends on the method and setting. In cells and extracts the contact can be indirect. Some results given as binding are weak or reduced against the parent protein; the word gives no strength.

Chains of the proteins cited; added tags and fusions are not shown. Residues count along the entry.
UniProt P05067, residues 672-770: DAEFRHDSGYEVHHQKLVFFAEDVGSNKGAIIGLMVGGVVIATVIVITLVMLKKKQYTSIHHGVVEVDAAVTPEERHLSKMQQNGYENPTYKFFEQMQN
UniProt Q92673, residues 82-2214: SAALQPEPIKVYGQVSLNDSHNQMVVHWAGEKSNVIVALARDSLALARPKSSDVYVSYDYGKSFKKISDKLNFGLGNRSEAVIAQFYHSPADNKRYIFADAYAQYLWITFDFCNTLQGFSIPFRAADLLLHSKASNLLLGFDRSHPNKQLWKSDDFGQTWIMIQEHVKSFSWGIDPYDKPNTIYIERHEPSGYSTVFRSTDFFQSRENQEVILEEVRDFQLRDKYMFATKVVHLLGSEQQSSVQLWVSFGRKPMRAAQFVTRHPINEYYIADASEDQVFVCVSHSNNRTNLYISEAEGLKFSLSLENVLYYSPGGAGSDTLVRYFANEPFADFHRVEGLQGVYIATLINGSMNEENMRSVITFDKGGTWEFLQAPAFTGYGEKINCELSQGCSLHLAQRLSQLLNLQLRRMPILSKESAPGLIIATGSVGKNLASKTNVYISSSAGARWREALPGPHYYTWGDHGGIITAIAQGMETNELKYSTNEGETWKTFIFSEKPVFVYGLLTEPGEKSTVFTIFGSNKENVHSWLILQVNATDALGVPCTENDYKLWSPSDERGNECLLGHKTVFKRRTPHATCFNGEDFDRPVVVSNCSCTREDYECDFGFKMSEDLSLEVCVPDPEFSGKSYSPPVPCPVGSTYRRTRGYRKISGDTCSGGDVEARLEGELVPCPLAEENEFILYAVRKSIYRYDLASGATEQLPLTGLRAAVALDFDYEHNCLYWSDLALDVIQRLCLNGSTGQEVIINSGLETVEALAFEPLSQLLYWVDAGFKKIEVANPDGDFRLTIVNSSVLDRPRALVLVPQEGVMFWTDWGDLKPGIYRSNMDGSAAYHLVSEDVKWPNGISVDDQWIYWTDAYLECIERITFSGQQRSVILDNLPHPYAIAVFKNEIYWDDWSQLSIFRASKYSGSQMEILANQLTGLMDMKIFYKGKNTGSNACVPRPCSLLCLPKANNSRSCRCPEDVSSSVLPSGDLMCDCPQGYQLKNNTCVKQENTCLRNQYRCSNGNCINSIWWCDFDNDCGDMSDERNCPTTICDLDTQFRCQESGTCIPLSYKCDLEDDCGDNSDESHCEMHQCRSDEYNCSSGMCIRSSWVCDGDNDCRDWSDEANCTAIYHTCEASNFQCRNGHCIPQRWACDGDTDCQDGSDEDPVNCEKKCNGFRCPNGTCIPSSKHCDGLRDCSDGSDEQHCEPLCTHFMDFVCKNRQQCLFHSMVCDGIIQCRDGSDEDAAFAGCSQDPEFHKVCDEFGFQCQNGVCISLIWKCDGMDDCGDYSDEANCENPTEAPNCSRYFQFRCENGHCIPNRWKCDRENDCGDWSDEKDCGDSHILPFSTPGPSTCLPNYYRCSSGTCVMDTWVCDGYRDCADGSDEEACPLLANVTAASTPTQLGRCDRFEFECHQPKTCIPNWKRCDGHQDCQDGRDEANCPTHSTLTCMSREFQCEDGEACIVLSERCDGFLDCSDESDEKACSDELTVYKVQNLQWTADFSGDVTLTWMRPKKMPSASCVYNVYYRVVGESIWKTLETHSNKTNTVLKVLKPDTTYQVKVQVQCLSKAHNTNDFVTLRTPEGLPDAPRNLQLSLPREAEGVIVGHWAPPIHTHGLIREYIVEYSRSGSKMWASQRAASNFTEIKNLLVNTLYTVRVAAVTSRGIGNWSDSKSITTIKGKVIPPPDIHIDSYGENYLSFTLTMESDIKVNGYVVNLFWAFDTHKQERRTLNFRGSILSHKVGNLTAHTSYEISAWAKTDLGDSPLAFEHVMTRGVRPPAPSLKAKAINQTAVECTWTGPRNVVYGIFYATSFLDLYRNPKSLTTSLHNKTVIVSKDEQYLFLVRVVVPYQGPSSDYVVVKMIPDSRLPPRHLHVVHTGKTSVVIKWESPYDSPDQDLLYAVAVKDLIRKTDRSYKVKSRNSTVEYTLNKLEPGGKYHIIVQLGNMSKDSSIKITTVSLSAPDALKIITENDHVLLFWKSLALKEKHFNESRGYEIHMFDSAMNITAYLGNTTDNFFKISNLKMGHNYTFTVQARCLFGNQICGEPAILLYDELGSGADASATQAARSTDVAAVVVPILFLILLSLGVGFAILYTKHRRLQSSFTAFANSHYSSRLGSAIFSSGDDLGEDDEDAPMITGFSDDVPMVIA

Assays:
[1] = biological target: C99 (stable inducible C99-expressing HEK293 cells; APP-CTFs precipitated with α-APPct) (UniProt P05067); test: co-IP; vehicle-treated cells; RIPA lysate (500 μg), α-APPct antibody and Protein A Sepharose, washes in RIPA, blot with anti-myc 9E10
[2] = biological target: C99 (stable inducible C99-expressing HEK293 cells; APP-CTFs precipitated with α-APPct) (UniProt P05067); test: condition: only cells treated with the γ-secretase inhibitor D6 (1 μM); co-IP; cells treated with the γ-secretase inhibitor D6 (1 μM); RIPA lysate (500 μg), α-APPct antibody and Protein A Sepharose, blot with anti-myc 9E10

- binding [1]: binds
- binding [2]: no binding
Substance: myc-tagged SorLA (sortilin receptor with A-type repeats) (from UniProt Q92673 82-2214)
